This is one part of the list.
Legend:
Assay in all cases: log2 fold change, soluble protein after heating vs DMSO (PISA); higher = thermal stabilisation; K562 lysate, 10 uM; active = over 0.2 and 3.5 SD of the protein, either way, in both replicates (recomputed)
pictilisib = compound: CS(=O)(=O)N1CCN(Cc2cc3nc(-c4cccc5[nH]ncc45)nc(N4CCOCC4)c3s2)CC1 [pictilisib]
Summary of the method: (§1)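 K562 pellets were dounce-homogenised in PBS pH 7.4 containing 1 mM MgCl2, and the crude extract, at 1 mg/mL protein, was exposed to 10 μM compound for 30 min. Aliquots were heated for 3 min across 48°C-58°C, pooled, brought to 0.5% NP-40 at 4°C and spun at 21,000xg for 90 min, with the supernatant taken as soluble protein. TMTpro 16plex LC-MS/MS with equalised channel sums quantified that protein. Values are log-two fold changes in thermal stability relative to solvent controls, taken from duplicates.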

Amino acid sequences for entries named in this document (tags omitted). A change or cut given only in a name is not applied to a line headed by its entry.
UniProt Q15185: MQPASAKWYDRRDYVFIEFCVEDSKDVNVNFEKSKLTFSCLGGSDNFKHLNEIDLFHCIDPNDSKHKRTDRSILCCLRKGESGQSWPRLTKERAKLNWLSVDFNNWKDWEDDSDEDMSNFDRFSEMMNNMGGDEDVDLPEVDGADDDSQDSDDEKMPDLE
UniProt O75365, whole entry, looked up: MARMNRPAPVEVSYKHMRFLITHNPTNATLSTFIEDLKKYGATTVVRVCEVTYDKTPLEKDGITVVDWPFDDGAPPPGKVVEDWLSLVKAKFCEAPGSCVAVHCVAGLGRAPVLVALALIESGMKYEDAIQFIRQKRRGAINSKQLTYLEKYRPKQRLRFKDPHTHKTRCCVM
UniProt Q86YD1: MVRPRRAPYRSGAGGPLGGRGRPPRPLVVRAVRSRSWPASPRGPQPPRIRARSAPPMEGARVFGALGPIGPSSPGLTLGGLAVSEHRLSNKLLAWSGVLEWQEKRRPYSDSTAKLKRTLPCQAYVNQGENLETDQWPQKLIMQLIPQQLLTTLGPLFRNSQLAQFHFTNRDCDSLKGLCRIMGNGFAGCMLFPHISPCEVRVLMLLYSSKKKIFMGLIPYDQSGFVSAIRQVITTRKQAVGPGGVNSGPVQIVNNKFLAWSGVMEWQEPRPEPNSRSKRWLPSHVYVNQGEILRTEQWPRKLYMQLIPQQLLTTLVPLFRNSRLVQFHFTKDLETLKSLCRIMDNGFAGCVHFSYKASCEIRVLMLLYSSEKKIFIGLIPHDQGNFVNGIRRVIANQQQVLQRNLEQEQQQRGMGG
UniProt Q8WV60: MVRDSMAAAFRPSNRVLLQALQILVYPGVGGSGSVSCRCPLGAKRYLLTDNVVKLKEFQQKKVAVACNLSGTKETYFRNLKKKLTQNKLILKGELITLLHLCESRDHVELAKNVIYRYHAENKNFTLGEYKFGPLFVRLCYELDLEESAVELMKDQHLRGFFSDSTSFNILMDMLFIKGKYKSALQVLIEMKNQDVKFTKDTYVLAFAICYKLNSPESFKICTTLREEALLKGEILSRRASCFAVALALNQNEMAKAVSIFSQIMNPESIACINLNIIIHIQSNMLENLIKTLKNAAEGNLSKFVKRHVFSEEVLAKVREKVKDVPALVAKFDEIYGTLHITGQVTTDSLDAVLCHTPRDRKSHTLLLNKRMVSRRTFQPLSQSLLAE
UniProt Q5THK1: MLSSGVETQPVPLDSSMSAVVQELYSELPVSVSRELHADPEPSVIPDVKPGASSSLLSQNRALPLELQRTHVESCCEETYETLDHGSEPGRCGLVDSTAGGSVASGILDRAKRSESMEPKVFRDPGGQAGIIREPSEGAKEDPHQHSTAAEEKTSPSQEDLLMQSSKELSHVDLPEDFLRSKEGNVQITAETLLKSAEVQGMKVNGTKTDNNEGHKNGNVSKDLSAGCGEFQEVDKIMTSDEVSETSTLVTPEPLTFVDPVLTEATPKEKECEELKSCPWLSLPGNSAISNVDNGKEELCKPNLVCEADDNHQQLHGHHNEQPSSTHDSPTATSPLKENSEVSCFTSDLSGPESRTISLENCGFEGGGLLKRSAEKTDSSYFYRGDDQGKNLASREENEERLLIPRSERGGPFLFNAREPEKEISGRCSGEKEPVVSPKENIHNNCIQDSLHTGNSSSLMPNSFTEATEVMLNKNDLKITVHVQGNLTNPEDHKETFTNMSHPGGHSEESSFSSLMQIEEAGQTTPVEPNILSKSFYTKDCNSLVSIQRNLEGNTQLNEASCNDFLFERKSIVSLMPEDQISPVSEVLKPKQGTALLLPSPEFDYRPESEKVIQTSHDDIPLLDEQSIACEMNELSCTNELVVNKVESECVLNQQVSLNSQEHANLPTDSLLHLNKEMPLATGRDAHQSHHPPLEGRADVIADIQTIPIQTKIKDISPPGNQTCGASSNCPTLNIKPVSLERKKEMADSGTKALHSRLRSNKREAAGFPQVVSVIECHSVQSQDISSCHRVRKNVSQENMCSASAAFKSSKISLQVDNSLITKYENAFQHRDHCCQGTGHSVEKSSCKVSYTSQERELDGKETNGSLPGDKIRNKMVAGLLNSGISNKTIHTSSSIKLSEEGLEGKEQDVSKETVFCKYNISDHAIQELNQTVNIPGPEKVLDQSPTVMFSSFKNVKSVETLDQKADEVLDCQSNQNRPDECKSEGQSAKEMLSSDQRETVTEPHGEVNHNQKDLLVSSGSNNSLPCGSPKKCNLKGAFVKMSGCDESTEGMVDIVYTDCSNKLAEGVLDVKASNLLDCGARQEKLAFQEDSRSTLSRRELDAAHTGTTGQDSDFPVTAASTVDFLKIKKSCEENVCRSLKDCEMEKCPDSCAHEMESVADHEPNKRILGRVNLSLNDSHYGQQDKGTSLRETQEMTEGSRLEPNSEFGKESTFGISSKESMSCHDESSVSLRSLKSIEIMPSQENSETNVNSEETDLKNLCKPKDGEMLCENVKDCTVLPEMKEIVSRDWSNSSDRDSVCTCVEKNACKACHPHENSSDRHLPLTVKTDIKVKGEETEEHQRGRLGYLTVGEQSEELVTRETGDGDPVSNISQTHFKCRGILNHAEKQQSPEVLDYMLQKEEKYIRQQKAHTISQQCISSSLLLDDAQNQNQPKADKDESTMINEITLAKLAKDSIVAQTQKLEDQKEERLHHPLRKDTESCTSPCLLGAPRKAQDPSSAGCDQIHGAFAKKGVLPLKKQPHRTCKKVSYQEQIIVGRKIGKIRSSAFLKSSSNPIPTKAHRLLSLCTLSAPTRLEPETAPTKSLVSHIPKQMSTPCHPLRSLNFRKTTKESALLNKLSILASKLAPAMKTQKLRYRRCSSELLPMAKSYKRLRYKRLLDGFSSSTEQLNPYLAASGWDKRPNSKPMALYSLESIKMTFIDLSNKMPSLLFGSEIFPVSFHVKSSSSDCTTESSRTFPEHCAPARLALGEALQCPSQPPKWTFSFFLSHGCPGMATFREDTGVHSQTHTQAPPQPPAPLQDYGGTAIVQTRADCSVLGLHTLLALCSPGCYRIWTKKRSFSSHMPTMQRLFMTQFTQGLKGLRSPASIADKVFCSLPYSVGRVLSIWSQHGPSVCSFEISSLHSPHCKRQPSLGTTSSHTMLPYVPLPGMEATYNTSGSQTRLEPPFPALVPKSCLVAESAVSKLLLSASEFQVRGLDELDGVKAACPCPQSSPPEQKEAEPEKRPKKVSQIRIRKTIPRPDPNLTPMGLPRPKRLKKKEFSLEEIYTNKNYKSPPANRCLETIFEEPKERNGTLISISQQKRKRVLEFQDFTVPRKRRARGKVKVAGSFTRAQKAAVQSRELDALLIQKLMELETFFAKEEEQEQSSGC
UniProt Q86Y79: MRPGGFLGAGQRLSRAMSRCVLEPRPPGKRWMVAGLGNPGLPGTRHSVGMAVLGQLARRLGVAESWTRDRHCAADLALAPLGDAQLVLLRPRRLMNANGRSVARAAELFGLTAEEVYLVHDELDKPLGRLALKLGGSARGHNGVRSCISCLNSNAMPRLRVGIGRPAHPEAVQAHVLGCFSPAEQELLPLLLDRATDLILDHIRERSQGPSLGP
UniProt Q16651: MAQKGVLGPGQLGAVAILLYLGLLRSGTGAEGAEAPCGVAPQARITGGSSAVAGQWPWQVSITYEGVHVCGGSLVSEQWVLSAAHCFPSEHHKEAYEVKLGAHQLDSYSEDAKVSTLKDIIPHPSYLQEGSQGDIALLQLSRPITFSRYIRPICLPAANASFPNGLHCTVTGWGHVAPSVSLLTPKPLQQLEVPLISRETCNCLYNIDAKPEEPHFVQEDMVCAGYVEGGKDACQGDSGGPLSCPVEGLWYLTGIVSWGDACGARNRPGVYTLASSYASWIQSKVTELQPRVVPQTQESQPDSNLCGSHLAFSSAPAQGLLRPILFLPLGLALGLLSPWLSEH
UniProt Q9BRX8: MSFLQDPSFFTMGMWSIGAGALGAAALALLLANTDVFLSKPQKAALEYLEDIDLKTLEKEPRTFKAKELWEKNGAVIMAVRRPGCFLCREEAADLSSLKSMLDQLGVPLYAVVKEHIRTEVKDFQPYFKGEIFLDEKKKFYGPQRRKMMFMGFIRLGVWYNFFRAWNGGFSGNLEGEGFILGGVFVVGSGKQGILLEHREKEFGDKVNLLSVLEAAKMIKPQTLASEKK
UniProt P07478, whole entry, looked up: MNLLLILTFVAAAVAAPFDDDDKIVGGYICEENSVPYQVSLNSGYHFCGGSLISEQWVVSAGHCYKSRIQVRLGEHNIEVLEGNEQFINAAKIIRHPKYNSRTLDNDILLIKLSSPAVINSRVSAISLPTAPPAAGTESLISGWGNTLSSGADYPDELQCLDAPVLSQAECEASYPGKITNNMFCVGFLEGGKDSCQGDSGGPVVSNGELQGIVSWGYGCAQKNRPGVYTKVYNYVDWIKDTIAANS
UniProt Q569H4: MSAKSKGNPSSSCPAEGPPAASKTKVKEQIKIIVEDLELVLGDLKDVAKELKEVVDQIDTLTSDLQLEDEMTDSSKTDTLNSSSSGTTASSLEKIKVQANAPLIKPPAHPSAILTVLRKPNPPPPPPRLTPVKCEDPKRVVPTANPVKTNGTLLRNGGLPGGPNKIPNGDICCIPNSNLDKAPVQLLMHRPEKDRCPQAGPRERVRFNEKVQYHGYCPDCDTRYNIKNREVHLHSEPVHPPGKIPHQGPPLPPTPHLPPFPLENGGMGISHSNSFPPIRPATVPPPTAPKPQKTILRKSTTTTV
UniProt Q9Y5Y4: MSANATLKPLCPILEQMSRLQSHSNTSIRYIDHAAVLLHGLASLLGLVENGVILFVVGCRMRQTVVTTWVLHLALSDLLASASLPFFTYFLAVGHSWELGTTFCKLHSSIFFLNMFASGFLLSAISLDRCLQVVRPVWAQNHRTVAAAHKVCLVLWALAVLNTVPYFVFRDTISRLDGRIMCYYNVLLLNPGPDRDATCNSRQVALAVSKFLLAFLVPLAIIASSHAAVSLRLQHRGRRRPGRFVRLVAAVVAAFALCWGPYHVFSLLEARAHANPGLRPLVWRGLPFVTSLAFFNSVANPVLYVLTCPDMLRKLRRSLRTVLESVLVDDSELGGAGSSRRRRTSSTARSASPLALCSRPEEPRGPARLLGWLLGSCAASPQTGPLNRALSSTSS
UniProt Q96N64: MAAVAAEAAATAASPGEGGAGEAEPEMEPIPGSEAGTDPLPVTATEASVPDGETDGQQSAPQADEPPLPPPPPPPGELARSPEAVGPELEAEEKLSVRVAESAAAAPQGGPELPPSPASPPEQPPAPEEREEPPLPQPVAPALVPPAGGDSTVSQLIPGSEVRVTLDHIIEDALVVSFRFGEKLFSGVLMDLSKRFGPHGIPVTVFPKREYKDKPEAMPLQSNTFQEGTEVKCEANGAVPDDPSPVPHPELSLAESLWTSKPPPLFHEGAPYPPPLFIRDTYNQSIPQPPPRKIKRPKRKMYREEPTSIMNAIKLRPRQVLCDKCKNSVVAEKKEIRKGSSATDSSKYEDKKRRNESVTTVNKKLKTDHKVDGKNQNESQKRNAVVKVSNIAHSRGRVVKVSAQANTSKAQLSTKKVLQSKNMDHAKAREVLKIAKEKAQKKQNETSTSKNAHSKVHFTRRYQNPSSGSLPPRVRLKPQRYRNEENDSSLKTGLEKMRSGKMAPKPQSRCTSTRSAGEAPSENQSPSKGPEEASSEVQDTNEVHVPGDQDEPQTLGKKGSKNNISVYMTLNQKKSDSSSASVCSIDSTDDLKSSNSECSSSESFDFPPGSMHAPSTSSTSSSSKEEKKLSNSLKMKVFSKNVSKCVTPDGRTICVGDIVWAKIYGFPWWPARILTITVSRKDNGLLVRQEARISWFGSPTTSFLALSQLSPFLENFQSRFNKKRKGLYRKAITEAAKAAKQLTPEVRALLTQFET
UniProt P06454: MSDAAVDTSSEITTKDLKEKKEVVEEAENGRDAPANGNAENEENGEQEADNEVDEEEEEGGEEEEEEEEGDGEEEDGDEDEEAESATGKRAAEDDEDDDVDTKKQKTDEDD
UniProt Q16378: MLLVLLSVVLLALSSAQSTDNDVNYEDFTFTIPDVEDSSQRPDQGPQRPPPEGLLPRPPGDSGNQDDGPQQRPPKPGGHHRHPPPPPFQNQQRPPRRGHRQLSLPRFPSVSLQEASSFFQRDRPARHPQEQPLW
UniProt O14818: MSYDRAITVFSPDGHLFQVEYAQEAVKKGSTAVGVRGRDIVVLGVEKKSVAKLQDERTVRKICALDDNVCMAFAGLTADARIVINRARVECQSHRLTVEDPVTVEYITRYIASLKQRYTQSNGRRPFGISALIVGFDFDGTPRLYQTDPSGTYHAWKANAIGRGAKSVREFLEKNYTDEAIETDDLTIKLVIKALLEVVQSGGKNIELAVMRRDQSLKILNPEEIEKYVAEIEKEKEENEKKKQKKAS
UniProt P79522: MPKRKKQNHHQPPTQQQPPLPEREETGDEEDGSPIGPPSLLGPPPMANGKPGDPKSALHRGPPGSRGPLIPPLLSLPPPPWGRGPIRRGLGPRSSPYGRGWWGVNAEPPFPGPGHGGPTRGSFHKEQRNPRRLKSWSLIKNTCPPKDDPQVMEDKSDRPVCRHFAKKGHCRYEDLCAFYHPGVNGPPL

bafetinib = compound: Cc1ccc(NC(=O)c2ccc(CN3CC[C@H](N(C)C)C3)c(C(F)(F)F)c2)cc1Nc1nccc(-c2cncnc2)n1 [bafetinib]
Summary of the method: as §1

crizotinib = compound: C[C@@H](Oc1cc(-c2cnn(C3CCNCC3)c2)cnc1N)c1c(Cl)ccc(F)c1Cl [crizotinib]
Summary of the method: as §1

[1] = compound: C[C@H](C1=CC=C(C=C1)C(=O)NC2=C3C=CNC3=NC=C2)N
Summary of the method: as §1

gandotinib = compound: Cc1cc(Nc2cc(CN3CCOCC3)c3nc(C)c(Cc4ccc(Cl)cc4F)n3n2)n[nH]1 [gandotinib]
Summary of the method: as §1

tozasertib = compound: Cc1cc(Nc2cc(N3CCN(C)CC3)nc(Sc3ccc(NC(=O)C4CC4)cc3)n2)n[nH]1 [tozasertib]
Summary of the method: as §1

doramapimod = compound: Cc1ccc(-n2nc(C(C)(C)C)cc2NC(=O)Nc2ccc(OCCN3CCOCC3)c3ccccc23)cc1 [doramapimod]
Summary of the method: as §1

[2] = compound: Cc1cccc(CC(=O)N2CCc3c2ccc(-c2cn(C)c4ncnc(N)c24)c3F)n1
Summary of the method: as §1

lapatinib = compound: CS(=O)(=O)CCNCc1ccc(-c2ccc3ncnc(Nc4ccc(OCc5cccc(F)c5)c(Cl)c4)c3c2)o1 [lapatinib]
Summary of the method: as §1

duvelisib = compound: C[C@H](Nc1ncnc2nc[nH]c12)c1cc2cccc(Cl)c2c(=O)n1-c1ccccc1 [duvelisib]
Summary of the method: as §1

Measured: log2 fold change

PTGES3 isoform 4 (UniProt Q15185)
inactive: pictilisib -0.1 | bafetinib 0.046

PSMF1 (UniProt Q5QPM7)
inactive: crizotinib -0.049 | [1] -0.104 | gandotinib 0.1 | tozasertib -0.119 | doramapimod 0.129 | [2] -0.014

PTP4A3 (UniProt O75365)
inactive: lapatinib -0.061 | crizotinib -0.041 | duvelisib 0.361 | tozasertib 0.112 | doramapimod -0.12

PTOV1 (UniProt Q86YD1)
inactive: crizotinib -0.058 | [1] 0.066 | duvelisib 0.202 | gandotinib -0.03 | doramapimod 0.075 | [2] -0.016

PUM2 (UniProt C9JW01)
inactive: [1] -0.163 | gandotinib 0.204 | [2] 0.463

PTCD2 (UniProt Q8WV60)
inactive: lapatinib -0.088 | crizotinib -0.11 | duvelisib -0.032 | tozasertib 0.016 | doramapimod 0.024

PSEN2 (UniProt P49810)
inactive: pictilisib -0.009 | crizotinib -0.127 | [1] -0.248 | duvelisib 0.084 | gandotinib 0.189 | tozasertib 0 | doramapimod -0.083 | bafetinib -0.171 | [2] 0.18

PRR14L (UniProt Q5THK1)
inactive: pictilisib -0.033 | crizotinib 0.015 | [1] 0.196 | duvelisib 0.04 | gandotinib -0.174 | tozasertib 0.07 | doramapimod -0.025 | bafetinib 0 | [2] -0.224

PTK2 isoform 2 (UniProt Q05397)
inactive: lapatinib 0.049 | pictilisib 0.067 | duvelisib 0.298 | tozasertib 0.125 | bafetinib -0.087

PSMD1, A0A087WW66
inactive: lapatinib -0.116 | pictilisib -0.271 | bafetinib 0.182

PTPA (UniProt A6PVN8)
inactive: tozasertib -0.066

PTPDC1 isoform 2 (UniProt A2A3K4)
inactive: pictilisib -0.075 | crizotinib 0.007 | doramapimod 0.029 | bafetinib -0.279

PTPRB isoform 3 (UniProt P23467)
inactive: lapatinib -0.034 | pictilisib -0.484 | duvelisib 0.172 | bafetinib -0.69

PTRH1 (UniProt Q86Y79)
inactive: crizotinib -0.071 | [1] -0.009 | gandotinib -0.01 | tozasertib 0.298 | doramapimod -0.001 | [2] 0.337

PRSS8 (UniProt Q16651)
inactive: crizotinib 0.093 | [1] -0.013 | duvelisib -0.036 | gandotinib -0.091 | doramapimod -0.436 | [2] -0.074

PRXL2A (UniProt Q9BRX8)
inactive: pictilisib 0.024 | [1] 0.108 | duvelisib 0.009 | gandotinib -0.018 | bafetinib -0.22 | [2] -0.111

PSTK (UniProt H7BYY4)
inactive: [1] 0.021 | duvelisib -0.001 | gandotinib -0.042 | [2] 0.206

PRR12 (UniProt Q9ULL5)
inactive: pictilisib -0.03 | crizotinib 0.008 | [1] -0.043 | gandotinib 0.057 | doramapimod 0.038 | bafetinib -0.333 | [2] 0.132

PRSS2 (UniProt P07478)
inactive: lapatinib 0.126 | [1] -0.046 | duvelisib 0.141 | gandotinib -0.01 | [2] -0.036

PTPN11 (UniProt Q06124)
inactive: [1] -0.067 | gandotinib 0.034 | [2] 0.051

PWWP2B (UniProt Q6NUJ5)
inactive: lapatinib 0.012 | [1] -0.336 | duvelisib -0.014 | gandotinib -0.385 | [2] 0.23

PRR16 (UniProt Q569H4)
inactive: crizotinib -0.124 | doramapimod 0.036

Looked up one by one from the list above, 2 records:
PRSS2 (UniProt P07478)
inactive: lapatinib 0.126 | [1] -0.046 | duvelisib 0.141 | gandotinib -0.01 | [2] -0.036

PRR16 (UniProt Q569H4)
inactive: crizotinib -0.124 | doramapimod 0.036

(next part)

PTGDR2 (UniProt Q9Y5Y4)
inactive: [1] 0.092 | gandotinib -0.133 | [2] 0.049

PSMA3 (UniProt H0YJ03)
inactive: lapatinib 0.002 | crizotinib -0.078 | duvelisib -0.052 | tozasertib -0.034 | doramapimod -0.08

PWWP2A (UniProt Q96N64)
inactive: [1] -0.197 | gandotinib -0.567 | [2] 0.117

PTGER3 isoform 2 (UniProt P43115)
inactive: lapatinib 0 | crizotinib 0.154 | doramapimod -0.095

PTMA isoform 2 (UniProt P06454)
inactive: pictilisib -0.053 | bafetinib -0.02

PSMB2, A0A087WVV1
inactive: pictilisib 0.032 | crizotinib -0.154 | [1] -0.508 | gandotinib 0.137 | tozasertib 0.086 | doramapimod 0.225 | bafetinib -0.304 | [2] 0.239

PRR4 (UniProt Q16378)
inactive: lapatinib 0.047 | [1] 0.291 | gandotinib -0.34 | tozasertib 0.412 | [2] 0.252

PSMA7 isoform 2 (UniProt O14818)
inactive: crizotinib 0.053 | duvelisib 0.044 | tozasertib 0.354 | doramapimod 0.093

PSMD4 (UniProt Q5VWC4)
inactive: pictilisib 0.06 | crizotinib 0.003 | [1] -0.023 | gandotinib 0.093 | doramapimod -0.014 | bafetinib -0.04 | [2] 0.11

PRR3 (UniProt P79522)
inactive: lapatinib -0.059 | crizotinib -0.067 | doramapimod 0.215

PSIP1 (UniProt V9GYT7)
inactive: pictilisib 0.072 | crizotinib -0.052 | [1] -0.054 | gandotinib -0.018 | doramapimod 0.036 | bafetinib -0.09 | [2] 0.222

PTPN14 (UniProt Q15678)
inactive: crizotinib -0.123 | tozasertib -0.073 | doramapimod 0.063

PTPRF (UniProt P10586)
inactive: crizotinib -0.193 | [1] 0.004 | gandotinib -0.093 | doramapimod 0.066 | [2] 0.081

Reference: the supplement of paper PMC10849652
